Experimental data taken from PubChem BioAssay AID1347076 (National Center for Advancing Translational Sciences (NCATS), 2019).
Screen size: about 400,000 compounds; about 13,000 (3.2%) were called active. This list was built around the results that the source calls inconclusive (neither active nor inactive); the mix of calls is not that of the screen. Calls come from the whole dose curve; as a rule, active = well fitted cell-killing curve with a large enough effect; inconclusive = small, poorly fitted or top-dose-only effect, or effect the other way; inactive = flat fitted curve, though single readings scatter. Potencies of inconclusive entries are doubtful fits and often do not repeat.

Test: qHTS assay for MDR1-selective chemotherapeutics: Primary screen using the drug-selected MDR subline cells KB-V1; note: nearly all actives have a fitted effect of over 60% in size
Conditions: KB-V1 MDR cells viability, CellTiter-Glo, 72 h; activity change, negative = cytotoxicity: at 46.1 µM (top of the series)
Procedure, shortened: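 Potencies derive from concentration-effect curves fitted to normalized luminescence (CellTiter-Glo) of KB-V1 cells treated for 72 h at 37 degrees C in phenol-red-free DMEM containing 10% FBS.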
% is set by controls: 0 for no effect and ±100 for the full control effect; potency is the fitted concentration of half-maximal effect.

| SMILES | Potency | activity change, negative = cytotoxicity |
| --- | --- | --- |
| CCOc1ccc(NC(=O)NCc2ccco2)cc1 | inconclusive: 20.6 µM [rising, single point] |  |
| COC(=O)c1ccccc1NC(=O)CC(=O)Nc1ccccc1C(=O)OC | inactive |  |
| Cc1ccc(CNC(=O)Cn2cccc2)cc1 | inconclusive: 16.4 µM [rising, partial curve, poor fit] |  |
| COc1ccc(OC)c(-c2nc3c(C)n[nH]c(=O)c3[nH]2)c1 | active: 18.4 µM |  |
| Cc1cc(C)cc(NC(=S)N2CCCC2)c1 | inconclusive: 13 µM [rising, partial curve, poor fit] |  |
| COc1ccc(OC)c(NC(=O)Nc2nnc(N3CCC(C)CC3)s2)c1 | inconclusive: 32.6 µM [rising, single point] |  |
| Cc1ccc(C(Sc2ccccc2)C(Cn2cncn2)C(=O)c2ccccc2)cc1 (stereo not drawn) | inconclusive: 23.1 µM [cytotoxic, single point] |  |
| O=C(COc1ccccc1F)NC1CCN(Cc2ccccc2)CC1 | inconclusive: 5.8 µM [cytotoxic, full curve] |  |
| CCOc1ccc(C2C(C#N)=C(C)NC3=C2C(=O)c2ccccc23)cc1 (stereo not drawn) | inconclusive: 5.8 µM [cytotoxic, partial curve, poor fit] |  |
| CN(C)C(CNS(=O)(=O)c1ccc(Br)cc1)c1cccnc1 (stereo not drawn) | inconclusive: 20.6 µM [cytotoxic, single point] |  |
| O=C(N/N=C\c1ccc[nH]1)C1COc2ccccc2O1 (stereo not drawn) | inconclusive: 0.0073 µM [rising, full curve] |  |
| O=C(/C=C/c1ccncc1)c1ccc2c(c1)OCCO2 | inconclusive: 23.1 µM [cytotoxic, single point] |  |
| O=C(Nc1nc2ccccc2[nH]1)C1CCC1 | inconclusive: 20.6 µM [cytotoxic, single point] |  |
| CNc1nc(NCCOC23CC4CC(CC(C4)C2)C3)nc(OCC(F)(F)F)n1 | inconclusive: 16.4 µM [cytotoxic, single point] |  |
| COC(=O)[C@@]12C[C@@H](CC(=O)N3CCSCC3)C(=O)N(Cc3cccc4ccccc34)C1=CCC(C)(C)C2 | inconclusive: 10.3 µM [cytotoxic, partial curve] |  |
| Cc1onc(-c2ccccc2Cl)c1C(=O)N1CCCCC1 | inactive |  |
| O=C(CCl)N1N=C(c2cccs2)CC1c1ccco1 (stereo not drawn) | inconclusive: 23.1 µM [cytotoxic, single point] |  |
| Cc1cc(C)c(-c2cc(NC(=O)CSc3n[nH]c(N)n3)n(-c3ccccc3)n2)cc1C | inconclusive: 9.2 µM [rising, partial curve, poor fit] |  |
| COC(=O)c1ccc2c(=O)n(Cc3ccc(C(=O)NC(C)C)cc3)c(=S)[nH]c2c1 | inconclusive: 11.6 µM [cytotoxic, partial curve] |  |
| O=S(=O)(c1ccc(-c2csc(=Nc3ccc(F)cc3)n2CCCCCCO)cc1)N1CCCC1 | inconclusive: 29.1 µM [cytotoxic, single point] |  |
| CC(=O)N1CCc2cc(S(=O)(=O)NCC(=O)NCc3ccccc3Cl)ccc21 | inconclusive: 29.1 µM [rising, single point] |  |
| CSc1ccc(C(=O)Nc2cc(S(=O)(=O)N3CCOCC3)ccc2N2CCOCC2)cc1[N+](=O)[O-] | inconclusive: 29.1 µM [cytotoxic, single point] |  |
| COc1cc2ncnc(NCc3cccc(F)c3F)c2cc1OC | inactive |  |

| SMILES | Potency | activity change, negative = cytotoxicity |
| --- | --- | --- |
| CC(C)OC(=O)NCCOC(=O)Nc1ccc(Cl)c(Cl)c1 | inconclusive: 29.1 µM [cytotoxic, single point] |  |
| COc1cc2c(c(OCC(=O)NC(C)C)c1)C(=O)O[C@@H](C)CCCC(=O)CCCCC2 | inconclusive: 20.6 µM [cytotoxic, partial curve] |  |
| CCn1c(=O)c2c(nc(SCC(=O)NC3CCCC3)n2C)n(C)c1=O | inactive |  |
| COc1ccccc1CNCc1cccs1 | inconclusive: 1.64 µM [rising, full curve] |  |
| Cc1ccc(Cl)cc1N1CCN(S(=O)(=O)c2ccc3c(c2)C(C(C)C)C(=O)N3)CC1 (stereo not drawn) | inconclusive: 16.4 µM [cytotoxic, partial curve, poor fit] |  |
| COCCCNC(=O)CN1C(=O)/C(=C/c2ccccc2)Sc2ccccc21 | inconclusive: 14.6 µM [cytotoxic, partial curve] |  |
| Oc1ccc(N2CCN(C(c3cccs3)c3nnnn3CCc3ccccc3)CC2)cc1 (stereo not drawn) | inconclusive: 8.2 µM [cytotoxic, partial curve] |  |
| CC(C)c1cccc(-c2csc(C(C)(O)c3ccncc3)n2)c1 (stereo not drawn) | inconclusive: 20.6 µM [cytotoxic, partial curve, poor fit] |  |
| COc1ccc(CN(C)C(=O)/C=C/c2ccc(S(=O)(=O)N3CCCCCC3)cc2)cc1 | active: 3.26 µM |  |
| O=C(Nc1ccccc1C(=O)N1CCCC1)C1COc2ccccc2O1 (stereo not drawn) | inconclusive: 23.1 µM [cytotoxic, single point] |  |
| COc1ccc(-n2nnnc2-c2cnc(N3CCCC3)nc2C(F)(F)F)cc1 | active: 5.17 µM |  |
| CN(/N=C/C=C/c1ccccc1)c1cc(=O)n(C)c(=O)[nH]1 | inconclusive: 32.6 µM [cytotoxic, partial curve, poor fit] |  |
| CSc1ncccc1C(=O)OCC(=O)N1CC(=O)Nc2ccccc21 | inconclusive: 0.0058 µM [cytotoxic, full curve, poor fit] |  |
| CCN(CC)CCN(CC)Cc1ccccc1Br | inconclusive: 23.1 µM [cytotoxic, single point] |  |
| CC(Sc1nnc(-c2cccs2)n1-c1ccccc1)C(=O)NCc1ccco1 (stereo not drawn) | inconclusive: 5.17 µM [cytotoxic, partial curve] |  |
| Cc1cc(C)c(S(=O)(=O)n2ccc3ccccc32)c(C)c1 | inconclusive: 13 µM [cytotoxic, partial curve] |  |
| Cc1ccc(NC(=S)Nc2ccccn2)c(C)c1 | inactive |  |
| CC(=O)NC1(c2nnnn2CCOC(=O)Nc2ccc(Cl)cc2)CCCC1 |  | inconclusive: -3.99% |
| COc1ccc(C(=O)c2c3ccc([N+](=O)[O-])cc3[n+]([O-])n2CCCN)cc1 | inconclusive: 32.6 µM [cytotoxic, single point] |  |
| COc1ccc(C(CNC(=O)c2ccc(S(=O)(=O)N(C)C)cc2)N2CCCC2)cc1 (stereo not drawn) | inactive |  |
| COc1ccc(CN(C)C(=O)COC(=O)c2c(-c3ccccc3Cl)noc2C)cc1 | inconclusive: 8.2 µM [cytotoxic, partial curve] |  |
| CC(C)OC(=O)C(C#N)c1nc2ccccc2nc1N1CCN(Cc2ccccc2)CC1 (stereo not drawn) | inconclusive: 29.1 µM [cytotoxic, partial curve, poor fit] |  |
| Cc1ccc(OCCNC(=O)/C=C/c2ccccc2)cc1C | inconclusive: 29.1 µM [cytotoxic, single point] |  |

Rewritten field by field: entries from further up
O=C(Nc1nc2ccccc2[nH]1)C1CCC1
  Potency: inconclusive: 20.6 µM [cytotoxic, single point]
CNc1nc(NCCOC23CC4CC(CC(C4)C2)C3)nc(OCC(F)(F)F)n1
  Potency: inconclusive: 16.4 µM [cytotoxic, single point]
COC(=O)[C@@]12C[C@@H](CC(=O)N3CCSCC3)C(=O)N(Cc3cccc4ccccc34)C1=CCC(C)(C)C2
  Potency: inconclusive: 10.3 µM [cytotoxic, partial curve]

(listing goes on)

| SMILES | Potency | activity change, negative = cytotoxicity |
| --- | --- | --- |
| COC(=O)c1ccc(-n2ccnc2)cc1 | inactive |  |
| Cc1ccnc2nc(C(=O)Nc3ccc(N4CCOCC4)cc3)nn12 | inconclusive: 20.6 µM [cytotoxic, partial curve, poor fit] |  |
| CN1CCN(c2cc(-c3ccccc3)nc3cc(-c4ccc(F)cc4)nn23)CC1 | inconclusive: 29.1 µM [cytotoxic, single point] |  |
| CCn1c(=O)c(C(=O)Nc2nc3ccccc3[nH]2)c(O)c2ccccc21 | active: 1.16 µM |  |
| CC(=O)Nc1ccc(OCC(O)Cn2c(C(C)C)nc3ccccc32)cc1 (stereo not drawn) | inactive |  |
| COc1ccc2[nH]c(=O)c(-c3nnn(-c4ccc(F)cc4)n3)cc2c1 | inconclusive: 29.1 µM [cytotoxic, single point] |  |
| CCOc1ccc2noc3c2c1C(=O)c1ccccc1-3 | inconclusive: 29.1 µM [rising, single point] |  |
| CC(NC(=O)COc1ccc(S(=O)(=O)N2CCCC2)cc1)c1ccccc1 (stereo not drawn) | inactive |  |
| Cc1cc(C)cc(NC(=O)N2CCC(C(=O)c3ccc(F)cc3)CC2)c1 | inconclusive: 14.6 µM [cytotoxic, partial curve, poor fit] |  |
| O=C(c1ccc(Cl)cc1)C1CCN(C(=O)NC2CCCCC2)CC1 | active: 2.31 µM |  |
| COc1ccc2c(c1)C(CC(=O)NN)CCC2 (stereo not drawn) | inconclusive: 23.1 µM [cytotoxic, single point] |  |
| CCN(CC)CCN1CCN(c2cncc(-c3ccc4ccccc4c3)n2)CC1 | inconclusive: 20.6 µM [cytotoxic, single point] |  |
| COc1cc(C(=O)NNC(=O)C2CCC2)cc(OC)c1OC |  | inconclusive: 0% |
| OC(COc1cccc2ccccc12)CN1CCN(c2ccccc2)CC1 (stereo not drawn) | inactive |  |
| COc1cc(C(=O)Oc2c(CN3CCOCC3)cc(Cl)c3cccnc23)cc(OC)c1OC | inconclusive: 18.4 µM [cytotoxic, partial curve] |  |
| COc1ccc(CNc2ccc3c(c2)ncn3C)cc1OC | inconclusive: 29.1 µM [cytotoxic, single point] |  |
| CN1C(=O)/C(=C\c2cccc(OCc3ccccc3)c2)SC1=S | inconclusive: 7.31 µM [rising, partial curve] |  |
| CC1(C)CC(N=c2cc(-c3ccccc3)oc3ccc(Cl)cc23)CC(C)(C)N1 | inconclusive: 29.1 µM [cytotoxic, single point] |  |
| Cc1ccc(C(=O)NC2CCCc3ccccc32)o1 (stereo not drawn) | inconclusive: 18.4 µM [cytotoxic, single point] |  |
| CCOc1ccc(NC(=O)C2C(c3ccccc3)C2(Cl)Cl)cc1 (stereo not drawn) | inactive |  |
| C[C@H](CO)N1C[C@H](C)[C@H](CN(C)C(=O)OCc2ccccc2)OCc2cnnn2CCCC1=O | inconclusive: 3.66 µM [rising, partial curve, poor fit] |  |
| O=C(NC1CCCCC1)C1c2ccccc2OCC(=O)N1Cc1cccnc1 (stereo not drawn) | inactive |  |
